# PubChem BioAssay AID248 (DTP/NCI, 2004)
# The list shows only some results of the screen, not a fair sample: it gathers tests that were run many times, whatever their T/C, doses with no T/C, and many T/C values between a quarter and a half above the control. Other doses and runs of a compound stand elsewhere. T/C is the treated group as % of the vehicle group. Some doses have a count of surviving animals in place of a T/C: the source holds a T/C of zero for them, seemingly a mark for toxic or unscored doses. Some doses without a T/C left all or most animals alive at the check, yet need not have been tolerated: survival well below the control is almost never listed, so the zero probably covers shortened survival too. Survivors were counted at the toxicity check, usually on the fifth day, unless a day is given; later deaths do not show. Schedules are NCI's codes, taken here to give the interval after Q, in days (D) or hours (H), and the number of doses after X. Some schedule codes hold Z or #, which are not explained here. Some entries were tested several times; their values stand side by side, smallest first. For survival time, the PubChem record calls one and a half times the control and up active, and a quarter to a half above the control has no call in these data; cut-offs in other NCI protocols can differ. Some T/C values are followed by the survivors on the day toxicity was checked, most often the fifth; where none is given, no animal had died by that day.
# Test system: L1210 leukemia ip in BDF1 mice, survival T/C
# Assay: NCI In Vivo Anticancer Drug Screen. Data for tumor model L1210 Leukemia (intraperitoneal) in B6D2F1 (BDF1) mice
# Settings: T/C endpoint: mean survival time, higher T/C = longer survival
# [1] = dose: 200.0 mg/kg/injection, schedule: Q01DX009 (ip), vehicle: saline with Tween-80
# [2] = dose: 400.0 mg/kg/injection, schedule: Q01DX009 (ip), vehicle: saline with Tween-80
structure (smiles),measurement,setting,value
O=C(CCN1CC1)Nc1cccc(NC(=O)CCN2CC2)c1,T/C,"dose: 5.0 mg/kg/injection, schedule: Q01DX001 (ip), vehicle: Klucel (hydroxypropylcellulose) (HPC)",128 % of control
same,T/C,"dose: 10.0 mg/kg/injection, schedule: Q01DX001 (ip), vehicle: Klucel (hydroxypropylcellulose) (HPC)",147 % of control
same,T/C,"dose: 20.0 mg/kg/injection, schedule: Q01DX001 (ip), vehicle: Klucel (hydroxypropylcellulose) (HPC)",141 % of control
same,survivor count,"dose: 80.0 mg/kg/injection, schedule: Q01DX001 (ip), vehicle: Klucel (hydroxypropylcellulose) (HPC)",5 of 6
Cc1ccc2c(c1)P(O)(=S)c1cc(F)ccc1O2 (stereo unspecified),survivor count,"dose: 400.0 mg/kg/injection, schedule: Q01DX009 (ip), vehicle: saline",1 of 6
CN1CCN=C1c1ccc(NC(=O)c2ccc(C(=O)Nc3ccc(C4=NCCN4C)cc3)c([N+](=O)[O-])c2)cc1,survivor count,"dose: 12.0 mg/kg/injection, schedule: Q01DX Z (ip), vehicle: carboxymethylcellulose (CMC)",3 of 6
CCSC(C(OC(C)=O)C(OC(C)=O)C(OC(C)=O)C(COC(C)=O)OC(C)=O)n1cc(C)c(=O)[nH]c1=O (stereo unspecified),survivor count,"dose: 200.0 mg/kg/injection, schedule: Q01DX001 (ip), vehicle: carboxymethylcellulose (CMC)",4 of 4
CSc1cc(C(=O)Nc2ccc(C3=NCCN3)cc2)ccc1C(=O)Nc1ccc(C2=NCCN2)cc1,T/C,"dose: 1.0 mg/kg/injection, schedule: Q01DX Z (ip), vehicle: carboxymethylcellulose (CMC)",128 % of control
same,T/C,"dose: 2.0 mg/kg/injection, schedule: Q01DX Z (ip), vehicle: carboxymethylcellulose (CMC)",140 % of control
same,T/C,"dose: 2.5 mg/kg/injection, schedule: Q01DX015 (ip), vehicle: methylcellulose (MC)",131 % of control
same,T/C,"dose: 4.0 mg/kg/injection, schedule: Q01DX Z (ip), vehicle: carboxymethylcellulose (CMC)",149 % of control
same,T/C,"dose: 5.0 mg/kg/injection, schedule: Q01DX015 (ip), vehicle: methylcellulose (MC)",133 % of control
same,T/C,"dose: 25.0 mg/kg/injection, schedule: Q01DX001 (ip), vehicle: methylcellulose (MC)",139 % of control
same,T/C,"dose: 50.0 mg/kg/injection, schedule: Q01DX001 (ip), vehicle: methylcellulose (MC)","120, 128, 130, 168 % of control"
same,survivor count,"dose: 80.0 mg/kg/injection, schedule: Q01DX015 (ip), vehicle: methylcellulose (MC)",5 of 6
same,survivor count,"dose: 80.0 mg/kg/injection, schedule: Q01DX Z (ip), vehicle: carboxymethylcellulose (CMC)",6 of 6
same,T/C,"dose: 100.0 mg/kg/injection, schedule: Q01DX001 (ip), vehicle: methylcellulose (MC)","144, 145, 151 [8 of 10 alive], 166 % of control [4 of 5 alive]"
same,survivor count,"dose: 150.0 mg/kg/injection, schedule: Q01DX001 (ip), vehicle: methylcellulose (MC)",0 of 10 and 2 of 9
same,survivor count,"dose: 200.0 mg/kg/injection, schedule: Q01DX001 (ip), vehicle: methylcellulose (MC)",0 of 6
COC(=O)C(CSCSC)NC(=O)/C=C/c1ccco1 (stereo unspecified),survivor count,[1],4 of 6
same,survivor count,[2],1 of 6
CCCC[CH2][Sn](=[O])[CH2]CCCC,survivor count,"dose: 100.0 mg/kg/injection, schedule: Q04DX003 (ip), vehicle: saline",4 of 6
same,survivor count,"dose: 200.0 mg/kg/injection, schedule: Q04DX003 (ip), vehicle: saline",0 of 6
same,survivor count,"dose: 400.0 mg/kg/injection, schedule: Q04DX003 (ip), vehicle: saline",0 of 6
CCCCOc1ccc(C(=O)NN)cc1,survivor count,[1],4 of 6
same,survivor count,[2],0 of 6
O=c1[nH]cncc1F,T/C,"dose: 264.0 mg/kg/injection, schedule: Q01DX001 (ip), vehicle: saline",142 % of control
same,survivor count,"dose: 600.0 mg/kg/injection, schedule: Q01DX001 (ip), vehicle: saline",6 of 6
CCCCCCCCCCCC[N+](C)(C)Cc1cc(=O)c(O)co1,survivor count,"dose: 100.0 mg/kg/injection, schedule: Q04DX002 (ip), vehicle: saline",1 of 3
same,survivor count,"dose: 200.0 mg/kg/injection, schedule: Q04DX002 (ip), vehicle: saline",0 of 3
same,survivor count,"dose: 400.0 mg/kg/injection, schedule: Q04DX002 (ip), vehicle: saline",0 of 3
